Measurements taken from PubChem BioAssay AID504444 (National Center for Advancing Translational Sciences (NCATS), 2011).
Hit rate of the full screen: of about 360,000 compounds, about 7,500 (2.1%) were called active. Inconclusive means that the source gave no clear call. Such entries were picked first, then a sample of the others. The call rests on the fitted dose curve; in most records, active means well fitted inhibition curve with a large enough effect; inconclusive means small, poorly fitted or top-dose-only effect, or effect the other way; inactive means flat fitted curve, though single readings scatter. Where the call is inconclusive, the potency comes from a doubtful curve fit.

assay: Nrf2 qHTS screen for inhibitors; settings: A549 ARE-Fluc reporter, luciferase luminescence, 18-24 h; activity change, negative = inhibition: at 46 µM (top of the series); further: nearly all actives have a fitted effect of over 60% in size
Method in brief: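 A549 ARE_Fluc cells, 5000/well, 5% FBS OPTI-MEM; compounds in dose-response, 18-24 h at 37 °C/5% CO2; CellTiter-Fluor viability read (Ex 405/Em 525), then BugLite luciferase luminescence = Nrf2 activity.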
On the % scale 0 is the no-effect control and ±100 the full control effect; potency means the concentration at half of the fitted maximal effect.

Structure (SMILES) | Potency | activity change, negative = inhibition
CCOc1ccc(NC(=O)c2cccc(NC(C)=O)c2)cc1S(=O)(=O)N1CCCC1 | inconclusive: 32.6 µM [falling, single point] | 
Cc1cc(C(=O)O/N=C(\N)c2ccncc2)ccc1[N+](=O)[O-] | inconclusive: 20.6 µM [activator, partial curve] | 
COc1cccc(C(=O)Nc2ccc(N3CCN(C(=O)c4cccs4)CC3)cc2)c1 | active: 20.6 µM | 
COc1ccc2cc(-c3ccn[nH]3)ccc2c1 | inconclusive: 4.11 µM [activator, full curve] | 
O=S1(=O)CCC(NC(=S)Nc2ccc3ccccc3c2)C1 (stereo not given) | inconclusive: 29.1 µM [activator, single point] | 
COc1ccc(-c2nnc(SCC(=O)N3CCC(C)CC3)o2)cc1 |  | inactive: -28.2%
Cc1cccc(-c2noc(CSc3ccccc3)n2)c1 | inconclusive: 7.94 µM [activator, partial curve] | 
c1ccc(CN2CCC(N=C3NN=C(c4ccc5c(c4)OCCO5)CS3)CC2)cc1 | inconclusive: 6.51 µM [falling, single point] | 
O=C(N/N=C/c1cn[nH]c1-c1ccc(Cl)cc1)c1ccc([N+](=O)[O-])cc1 | inconclusive: 32.6 µM [activator, single point] | 
Cc1c(C(=O)N/N=C/c2ccccc2)sc(=S)n1C | inconclusive: 29.1 µM [activator, single point] | 
Cc1nn(-c2ccccc2)c(C)c1/C=N/NC(=O)CSc1nc2ccccc2c(=O)n1-c1ccccc1 | inconclusive: 11.6 µM [falling, partial curve, poor fit] | 
CC1SCC(NC(=O)c2ccccc2Cl)CS1 (stereo not given) | inconclusive: 25.9 µM [activator, partial curve, poor fit] | 
Oc1cc(NCc2ccc(F)cc2)cc2cccnc12 | inconclusive: 29.1 µM [falling, single point] | 
COc1ccc(CNC(=O)C2(c3ccc(Cl)cc3)CC2)cc1 | inconclusive: 29.1 µM [activator, single point] | 
CCN(CC(O)Cn1c2ccccc2c2ccccc21)S(=O)(=O)c1ccc(C)cc1 (stereo not given) | inconclusive: 29.1 µM [falling, single point] | 
Cc1ccc(C)c(NC(=O)C(CC(C)C)N2Cc3ccccc3C2=O)c1 (stereo not given) | inconclusive: 18.4 µM [activator, partial curve, poor fit] | 
Cn1c(=O)c2c(ncn2CC(COCc2ccccc2Cl)OCc2ccccc2Cl)n(C)c1=O (stereo not given) | inconclusive: 16.4 µM [falling, partial curve, poor fit] | 
COc1ccc(OC)c(NC(=O)CCc2c[nH]c3ccccc23)c1 | inconclusive: 23.1 µM [falling, partial curve] | 
COc1cc(S(=O)(=O)N(Cc2ccc(C)cc2)Cc2ccco2)ccc1-n1cnnn1 | inconclusive: 29.1 µM [falling, single point] | 
CC(C)(C)c1csc(NC(=O)c2ccccc2O)n1 | inconclusive: 29.1 µM [falling, single point] | 

Some values from the results shown.
Value for O=C(N/N=C/c1cn[nH]c1-c1ccc(Cl)cc1)c1ccc([N+](=O)[O-])cc1 under Potency: inconclusive: 32.6 µM [activator, single point]
Value for COc1cc(S(=O)(=O)N(Cc2ccc(C)cc2)Cc2ccco2)ccc1-n1cnnn1 under Potency: inconclusive: 29.1 µM [falling, single point]
Value for Cc1c(C(=O)N/N=C/c2ccccc2)sc(=S)n1C under Potency: inconclusive: 29.1 µM [activator, single point]

Following part

Structure (SMILES) | Potency | activity change, negative = inhibition
COc1ccc(-c2csc3ncnc(NCCCO)c23)cc1 | inconclusive: 9.2 µM [falling, partial curve] | 
O=C(N/N=C/c1cc2c(cc1Cl)OCO2)c1cc(-c2ccccc2)n[nH]1 | inconclusive: 29.1 µM [falling, partial curve, poor fit] | 
CCC(C)C(NC(=O)OC(C)(C)C)C(=O)NC1COC2CC(n3ccc(=O)[nH]c3=O)OC12 (stereo not given) |  | inactive: 15.3%
CCCS(=O)(=O)c1cnc(C2COc3ccccc3O2)nc1N (stereo not given) | inconclusive: 9.2 µM [falling, partial curve, poor fit] | 
Cc1ccc(S(=O)(=O)N2C[C@@H]3[C@H]4CC[C@H](C4)[C@@H]3[C@@H](C)[C@@H]2c2cn(Cc3ccccc3)c3ccc(F)cc23)cc1 | inconclusive: 18.4 µM [falling, partial curve] | 
CCOc1ccc(-c2nnc(SCC(=O)Nc3cccc(C#N)c3)o2)cc1 | inconclusive: 32.6 µM [falling, single point] | 
C/C(=N\OCC(=O)Nc1ccc2c(c1)OCCO2)c1ccc2c(c1)OCCO2 | active: 18.4 µM | 
c1ccc(CN2CCN(c3nc(-c4ccccc4)nc(-n4ccnc4)n3)CC2)cc1 | active: 14.6 µM | 
COc1cccc(CC(=O)Nc2ccc(S(=O)(=O)N3CCCCC3)cc2)c1 | inconclusive: 25.9 µM [falling, single point] | 
CC(C)Oc1ccc(/C(O)=C2/C(=O)C(=O)N(CCN3CCNCC3)C2c2ccc(C(C)C)cc2)cc1 (stereo not given) | inconclusive: 16.4 µM [activator, partial curve, poor fit] | 
COc1cccc(NC(=O)Nc2ccc3c(c2)N(C)C(=O)c2ccccc2S3)c1 | inconclusive: 9.2 µM [falling, partial curve, poor fit] | 
CC1CCN(C(=O)Cn2c(-c3cccs3)cc3cc(Cl)ccc32)CC1 | inconclusive: 18.4 µM [falling, single point] | 
CCOc1ccc(-c2nnc(-c3cccs3)o2)cc1 | inconclusive: 0.164 µM [activator, full curve, poor fit] | 
O=C(NCc1ccccc1)c1noc2c1CCCCC2 | inconclusive: 5.8 µM [activator, partial curve, poor fit] | 
O=c1[nH]c(CN2CCN(c3ccc(F)cc3)CC2)nc2ccccc12 | inconclusive: 16.4 µM [falling, partial curve] | 
O=C(c1ccc(Cl)cc1)n1nc(-c2cccnc2)nc1NCc1ccc(F)cc1 | inconclusive: 29.1 µM [falling, single point] | 
CN(C)c1ccc(-n2cccc2/C=N/n2cnnc2)cc1 | inconclusive: 20.6 µM [activator, single point] | 
O=C(Nc1ccc(N2CCOCC2)cc1)c1ccc(Cl)c(S(=O)(=O)N2CCCCC2)c1 | active: 4.11 µM | 
CCn1c(=O)c2sccc2n2c(CCCC(=O)N3CCN(c4ccc(F)cc4)CC3)nnc12 |  | inactive: -14.2%
CCOC(=O)CNC(=S)N(Cc1cccs1)C1CCCCC1 |  | inactive: 1.45%
